The results in this text go back to article doi:10.1101/701425.

Protein sequences, listed by entry. Tags and fused reporters are not part of them. Lines headed by an entry give the natural chain unless they say otherwise; changes in a name come on top. Residues count along the entry.
UniProt F4J8D3: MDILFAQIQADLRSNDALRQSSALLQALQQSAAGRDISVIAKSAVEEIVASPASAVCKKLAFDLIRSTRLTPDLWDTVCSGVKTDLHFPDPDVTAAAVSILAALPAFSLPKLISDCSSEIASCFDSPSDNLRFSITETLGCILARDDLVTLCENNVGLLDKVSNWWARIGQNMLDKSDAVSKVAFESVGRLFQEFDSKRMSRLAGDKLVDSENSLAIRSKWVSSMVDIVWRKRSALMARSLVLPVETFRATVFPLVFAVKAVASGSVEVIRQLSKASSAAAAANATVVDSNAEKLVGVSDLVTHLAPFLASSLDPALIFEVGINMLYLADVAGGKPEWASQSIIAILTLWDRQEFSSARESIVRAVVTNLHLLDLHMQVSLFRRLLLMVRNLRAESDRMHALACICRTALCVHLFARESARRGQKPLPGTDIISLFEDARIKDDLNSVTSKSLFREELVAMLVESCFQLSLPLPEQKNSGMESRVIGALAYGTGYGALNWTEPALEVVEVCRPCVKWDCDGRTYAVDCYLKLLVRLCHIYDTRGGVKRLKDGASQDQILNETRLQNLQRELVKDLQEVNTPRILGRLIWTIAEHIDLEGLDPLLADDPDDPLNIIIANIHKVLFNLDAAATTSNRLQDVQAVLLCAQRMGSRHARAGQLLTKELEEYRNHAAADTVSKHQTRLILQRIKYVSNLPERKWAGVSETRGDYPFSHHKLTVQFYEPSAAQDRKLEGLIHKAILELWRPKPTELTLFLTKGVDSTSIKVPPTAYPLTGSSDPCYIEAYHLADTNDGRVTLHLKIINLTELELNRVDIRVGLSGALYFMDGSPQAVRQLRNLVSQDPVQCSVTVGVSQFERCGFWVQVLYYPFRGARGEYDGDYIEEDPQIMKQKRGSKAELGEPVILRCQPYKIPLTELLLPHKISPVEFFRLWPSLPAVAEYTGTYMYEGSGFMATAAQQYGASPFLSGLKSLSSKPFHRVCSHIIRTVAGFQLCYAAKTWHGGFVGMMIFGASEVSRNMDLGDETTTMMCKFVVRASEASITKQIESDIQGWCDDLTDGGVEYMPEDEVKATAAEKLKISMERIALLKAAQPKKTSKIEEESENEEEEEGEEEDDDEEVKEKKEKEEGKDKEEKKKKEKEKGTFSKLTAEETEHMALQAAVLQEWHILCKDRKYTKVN
UniProt C0LGT6, residues 25-1031: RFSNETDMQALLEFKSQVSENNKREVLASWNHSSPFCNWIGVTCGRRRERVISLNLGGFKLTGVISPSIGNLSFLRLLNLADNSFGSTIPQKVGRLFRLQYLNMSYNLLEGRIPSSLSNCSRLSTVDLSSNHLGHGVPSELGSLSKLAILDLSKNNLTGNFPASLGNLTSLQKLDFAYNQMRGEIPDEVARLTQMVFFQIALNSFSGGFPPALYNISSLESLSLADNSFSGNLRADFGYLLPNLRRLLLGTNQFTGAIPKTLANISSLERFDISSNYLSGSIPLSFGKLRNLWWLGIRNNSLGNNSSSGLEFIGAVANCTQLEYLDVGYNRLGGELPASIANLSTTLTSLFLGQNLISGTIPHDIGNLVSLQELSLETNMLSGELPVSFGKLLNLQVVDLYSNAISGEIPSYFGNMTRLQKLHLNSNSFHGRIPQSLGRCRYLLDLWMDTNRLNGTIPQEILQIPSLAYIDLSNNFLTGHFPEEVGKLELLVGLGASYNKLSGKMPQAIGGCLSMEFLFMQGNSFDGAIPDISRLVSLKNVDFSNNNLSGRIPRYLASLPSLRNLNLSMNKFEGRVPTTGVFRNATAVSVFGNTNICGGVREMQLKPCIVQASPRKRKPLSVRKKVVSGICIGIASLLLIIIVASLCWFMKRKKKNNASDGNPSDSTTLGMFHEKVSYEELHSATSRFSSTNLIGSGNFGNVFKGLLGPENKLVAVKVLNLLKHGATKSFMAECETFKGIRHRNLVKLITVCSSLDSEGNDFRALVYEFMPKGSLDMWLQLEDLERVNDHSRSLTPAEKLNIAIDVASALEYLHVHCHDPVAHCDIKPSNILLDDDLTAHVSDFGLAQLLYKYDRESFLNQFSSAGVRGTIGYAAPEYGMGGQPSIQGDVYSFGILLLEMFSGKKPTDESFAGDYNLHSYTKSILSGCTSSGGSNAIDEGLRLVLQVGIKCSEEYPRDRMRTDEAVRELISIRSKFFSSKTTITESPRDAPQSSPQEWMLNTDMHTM
UniProt Q8S9J8: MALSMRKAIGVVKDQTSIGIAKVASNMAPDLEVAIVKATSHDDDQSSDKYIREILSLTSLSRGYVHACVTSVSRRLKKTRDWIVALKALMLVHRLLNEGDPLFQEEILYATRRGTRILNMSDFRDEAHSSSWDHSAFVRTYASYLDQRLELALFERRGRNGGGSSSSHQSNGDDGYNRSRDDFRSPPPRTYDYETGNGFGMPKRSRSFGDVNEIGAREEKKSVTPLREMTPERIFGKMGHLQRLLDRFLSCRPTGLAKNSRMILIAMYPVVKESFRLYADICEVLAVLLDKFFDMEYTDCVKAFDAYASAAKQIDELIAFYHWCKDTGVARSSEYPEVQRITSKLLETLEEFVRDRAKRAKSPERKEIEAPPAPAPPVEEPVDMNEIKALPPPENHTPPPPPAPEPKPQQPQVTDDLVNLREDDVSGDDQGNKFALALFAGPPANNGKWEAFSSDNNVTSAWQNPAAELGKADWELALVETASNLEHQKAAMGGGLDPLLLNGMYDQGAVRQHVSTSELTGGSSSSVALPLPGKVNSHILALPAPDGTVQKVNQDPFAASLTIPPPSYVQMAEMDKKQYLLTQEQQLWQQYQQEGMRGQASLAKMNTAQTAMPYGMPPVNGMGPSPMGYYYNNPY
UniProt F4KIH8: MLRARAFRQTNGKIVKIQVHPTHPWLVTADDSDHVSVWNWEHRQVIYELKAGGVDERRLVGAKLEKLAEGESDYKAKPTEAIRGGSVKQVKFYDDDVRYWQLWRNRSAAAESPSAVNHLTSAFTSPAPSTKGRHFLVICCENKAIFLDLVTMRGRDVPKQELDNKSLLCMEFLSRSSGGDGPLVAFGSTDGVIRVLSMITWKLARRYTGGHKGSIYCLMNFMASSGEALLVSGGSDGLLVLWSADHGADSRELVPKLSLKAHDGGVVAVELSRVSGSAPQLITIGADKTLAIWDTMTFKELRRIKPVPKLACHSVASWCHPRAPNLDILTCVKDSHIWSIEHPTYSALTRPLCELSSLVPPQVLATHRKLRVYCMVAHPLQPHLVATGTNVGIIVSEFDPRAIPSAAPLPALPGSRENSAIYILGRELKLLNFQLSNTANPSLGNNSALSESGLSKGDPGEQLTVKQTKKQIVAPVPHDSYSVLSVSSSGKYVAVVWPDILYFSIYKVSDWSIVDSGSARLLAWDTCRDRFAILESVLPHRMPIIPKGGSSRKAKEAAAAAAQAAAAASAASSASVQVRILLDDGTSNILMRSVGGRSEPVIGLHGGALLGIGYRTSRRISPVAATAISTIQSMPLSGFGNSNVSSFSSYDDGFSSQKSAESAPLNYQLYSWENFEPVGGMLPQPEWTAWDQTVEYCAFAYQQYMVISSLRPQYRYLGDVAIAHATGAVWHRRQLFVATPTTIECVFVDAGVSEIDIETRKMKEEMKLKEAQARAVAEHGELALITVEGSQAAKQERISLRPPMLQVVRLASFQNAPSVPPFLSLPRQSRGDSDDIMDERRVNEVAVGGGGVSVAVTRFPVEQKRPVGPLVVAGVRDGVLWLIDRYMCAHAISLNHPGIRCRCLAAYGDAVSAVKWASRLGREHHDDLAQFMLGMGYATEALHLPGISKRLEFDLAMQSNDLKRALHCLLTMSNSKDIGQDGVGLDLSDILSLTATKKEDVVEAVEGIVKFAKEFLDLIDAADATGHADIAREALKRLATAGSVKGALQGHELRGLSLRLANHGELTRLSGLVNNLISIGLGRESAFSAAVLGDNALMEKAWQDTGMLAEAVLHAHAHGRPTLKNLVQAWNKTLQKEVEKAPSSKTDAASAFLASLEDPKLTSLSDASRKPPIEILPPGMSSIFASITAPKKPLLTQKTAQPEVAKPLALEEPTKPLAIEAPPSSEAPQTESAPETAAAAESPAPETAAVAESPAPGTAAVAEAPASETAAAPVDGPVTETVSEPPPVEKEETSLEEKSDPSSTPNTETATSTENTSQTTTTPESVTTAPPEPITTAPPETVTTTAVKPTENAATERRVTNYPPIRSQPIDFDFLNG

For experiment [1], the target named is TPLATE-GS^rhino (A. thaliana) (UniProt F4J8D3). Description: affinity purification with mass spectrometry.
For experiment [2], the target named is TPLATE-linkerBioID2 (A. thaliana) (UniProt F4J8D3). Description: proximity labelling.
For experiment [3], the target named is TPLATE-linkerBioID (A. thaliana) (UniProt F4J8D3). Description: proximity labelling.
In experiment [4] the target is TPLATE-BioID (A. thaliana) (UniProt F4J8D3). Description: proximity labelling.
Experiment [5] concerns the target TPLATE-linkerTurboID (A. thaliana) (UniProt F4J8D3). Description: proximity labelling.
Experiment [6] has the same target. Description: proximity labelling. The source holds these as a separate data set.
The target of experiment [7] is NFR5-TurboID (Lotus japonicus) (UniProt Q70KR1). Description: proximity labelling.

Where two headings read alike, the source gives them in different places. No constants are given. Whether binding was seen depends on the method and setting. Binding seen in cells or lysates may run through a third protein. Here binding means that the protein was enriched with, or labelled near, the bait; the list need not be complete. For some of these results: A no says only that the protein was not detected with the bait.

Turning to AtEH1/Pan1 (from UniProt F4HUN9), the binding entry in experiment [1], in experiment [2], in experiment [3], in experiment [4], in experiment [5] and in experiment [6] was “binds” in each case.

Consider “EFR-GFP (from UniProt C0LGT6 25-1031) (receptor)”, for which the binding entry in experiment [7] is recorded as “no binding”.

Consider PICALM4B (CAP1) (from UniProt Q8S9J8), for which the binding entry in experiment [1] is reported as “binds”.

With TML (from UniProt Q9FKM4), the binding result in experiment [1], in experiment [2], in experiment [3], in experiment [4], in experiment [5] and in experiment [6] was “binds” throughout.

With TWD40-2 (from UniProt F4KIH8), the binding result in experiment [1], in experiment [2], in experiment [3], in experiment [5] and in experiment [6] was “binds” each time.
